Results as given in patent US20090186949A1, “Method for Treating Endothelial and Epithelial Cell Disorders by Administering High Molecular Weight PEG-Like Compounds” (THE UNIVERSITY OF CHICAGO, priority 2006, published 2009).
No constants are given. Whether binding was seen depends on the method and setting. Some results given as binding are weak or reduced against the parent protein; the word gives no strength.

Protein sequences, listed by entry. Tags and fused reporters are not part of them. Residues count along the entry.
UniProt P01579, residues 24-166: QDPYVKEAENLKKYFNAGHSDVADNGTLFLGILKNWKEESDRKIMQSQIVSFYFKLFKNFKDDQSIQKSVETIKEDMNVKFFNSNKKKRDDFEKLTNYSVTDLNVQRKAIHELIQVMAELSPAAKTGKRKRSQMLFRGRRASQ

Molecular target: T1, P. aeruginosa outer membrane porin OprF (outer membrane protein F) (Pseudomonas aeruginosa (strain PAO1)) (UniProt P13794)
T1 sequence: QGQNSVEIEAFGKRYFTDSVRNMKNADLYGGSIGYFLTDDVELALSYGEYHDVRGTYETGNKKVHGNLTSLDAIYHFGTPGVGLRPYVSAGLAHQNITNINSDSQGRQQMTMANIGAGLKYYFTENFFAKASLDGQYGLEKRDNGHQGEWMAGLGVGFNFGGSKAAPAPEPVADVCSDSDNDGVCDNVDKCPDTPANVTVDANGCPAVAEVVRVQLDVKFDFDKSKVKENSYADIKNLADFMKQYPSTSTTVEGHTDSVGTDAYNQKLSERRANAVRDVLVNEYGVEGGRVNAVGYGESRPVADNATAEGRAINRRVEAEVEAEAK
Test: sandwich ELISA, anti-OprF antibody coated, biotin-labeled anti-IFN-γ antibody

With “recombinant human IFN-γ (rH IFN-γ) (from UniProt P01579 24-166) (ligand)” the binding was “binds”.
